In paper doi:10.1101/266833 (bioRxiv, 2018):
Where two headings read alike, the source gives them in different places. No constants are given. Whether binding was seen depends on the method and setting. For some of these results: In cells and extracts the contact can be indirect. Some binding calls cover weakened binding; strength is not graded here. For some of these results: Where a sequence is shown, tags or fusion partners need not be part of it.

Tests used:
Upf1-TAP (S. cerevisiae) [1] = target: T1, Upf1-TAP (S. cerevisiae) (UniProt P30771); assay: co-IP
T1 sequence: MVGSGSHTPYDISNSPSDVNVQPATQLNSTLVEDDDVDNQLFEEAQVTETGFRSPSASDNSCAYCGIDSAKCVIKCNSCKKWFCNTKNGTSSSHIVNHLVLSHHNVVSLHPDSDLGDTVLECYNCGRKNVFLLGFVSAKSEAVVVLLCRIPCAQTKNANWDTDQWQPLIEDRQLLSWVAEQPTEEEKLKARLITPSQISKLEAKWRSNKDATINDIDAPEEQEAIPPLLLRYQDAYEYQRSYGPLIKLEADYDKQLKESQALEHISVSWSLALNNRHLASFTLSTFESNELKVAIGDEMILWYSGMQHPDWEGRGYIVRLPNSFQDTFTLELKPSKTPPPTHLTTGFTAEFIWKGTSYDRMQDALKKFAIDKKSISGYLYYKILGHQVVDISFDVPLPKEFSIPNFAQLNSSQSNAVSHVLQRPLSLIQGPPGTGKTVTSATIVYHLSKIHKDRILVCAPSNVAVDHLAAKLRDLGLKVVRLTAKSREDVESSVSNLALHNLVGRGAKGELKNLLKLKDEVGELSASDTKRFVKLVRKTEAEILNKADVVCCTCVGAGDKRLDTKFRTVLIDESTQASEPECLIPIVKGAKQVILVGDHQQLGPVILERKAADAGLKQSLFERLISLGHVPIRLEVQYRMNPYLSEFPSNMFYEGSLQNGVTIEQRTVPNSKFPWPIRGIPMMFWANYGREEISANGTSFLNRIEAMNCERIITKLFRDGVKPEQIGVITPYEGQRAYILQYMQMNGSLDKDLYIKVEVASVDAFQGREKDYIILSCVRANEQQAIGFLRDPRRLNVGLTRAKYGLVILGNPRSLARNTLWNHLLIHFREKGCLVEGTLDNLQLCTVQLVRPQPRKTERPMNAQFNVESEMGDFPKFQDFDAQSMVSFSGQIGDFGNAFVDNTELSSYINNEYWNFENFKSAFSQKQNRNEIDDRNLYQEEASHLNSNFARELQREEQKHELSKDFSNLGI

Upf1-TAP (S. cerevisiae) [2] = target: T1, Upf1-TAP (S. cerevisiae); assay: co-IP; remark: listed apart in the source
[3] = target: T2, TAP-Upf1-CH (2-208) (S. cerevisiae) (UniProt P30771); assay: co-IP
T2 sequence: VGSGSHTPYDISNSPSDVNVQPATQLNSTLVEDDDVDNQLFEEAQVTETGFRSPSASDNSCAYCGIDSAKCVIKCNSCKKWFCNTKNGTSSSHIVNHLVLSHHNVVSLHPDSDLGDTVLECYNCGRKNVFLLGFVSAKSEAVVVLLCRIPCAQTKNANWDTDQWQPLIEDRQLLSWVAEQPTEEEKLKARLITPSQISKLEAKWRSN

[4] = target: T3, TAP-Upf1-HD-Cter (208-971) (S. cerevisiae) (UniProt P30771); assay: co-IP
T3 sequence: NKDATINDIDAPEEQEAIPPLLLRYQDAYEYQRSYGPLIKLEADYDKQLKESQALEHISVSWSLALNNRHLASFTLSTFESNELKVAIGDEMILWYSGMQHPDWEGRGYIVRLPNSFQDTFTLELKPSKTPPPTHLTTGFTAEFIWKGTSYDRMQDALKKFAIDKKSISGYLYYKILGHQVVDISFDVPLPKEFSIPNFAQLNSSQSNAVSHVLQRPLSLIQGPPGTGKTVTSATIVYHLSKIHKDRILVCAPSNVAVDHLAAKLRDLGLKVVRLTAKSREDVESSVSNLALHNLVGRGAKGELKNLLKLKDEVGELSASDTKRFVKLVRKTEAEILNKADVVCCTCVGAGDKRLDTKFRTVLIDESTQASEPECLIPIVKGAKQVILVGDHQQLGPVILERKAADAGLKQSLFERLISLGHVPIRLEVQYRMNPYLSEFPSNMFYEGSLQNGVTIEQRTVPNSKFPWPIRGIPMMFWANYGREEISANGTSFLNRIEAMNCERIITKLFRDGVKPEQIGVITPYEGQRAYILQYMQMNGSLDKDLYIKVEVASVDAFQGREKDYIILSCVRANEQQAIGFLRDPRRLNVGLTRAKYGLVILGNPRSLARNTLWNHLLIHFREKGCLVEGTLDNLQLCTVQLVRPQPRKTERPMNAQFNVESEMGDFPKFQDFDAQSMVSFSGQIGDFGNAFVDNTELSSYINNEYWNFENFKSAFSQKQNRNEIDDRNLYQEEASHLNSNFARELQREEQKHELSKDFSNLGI

[5] = target: T4, TAP-Upf1-FL (S. cerevisiae) (UniProt P30771); assay: co-IP
T4 sequence: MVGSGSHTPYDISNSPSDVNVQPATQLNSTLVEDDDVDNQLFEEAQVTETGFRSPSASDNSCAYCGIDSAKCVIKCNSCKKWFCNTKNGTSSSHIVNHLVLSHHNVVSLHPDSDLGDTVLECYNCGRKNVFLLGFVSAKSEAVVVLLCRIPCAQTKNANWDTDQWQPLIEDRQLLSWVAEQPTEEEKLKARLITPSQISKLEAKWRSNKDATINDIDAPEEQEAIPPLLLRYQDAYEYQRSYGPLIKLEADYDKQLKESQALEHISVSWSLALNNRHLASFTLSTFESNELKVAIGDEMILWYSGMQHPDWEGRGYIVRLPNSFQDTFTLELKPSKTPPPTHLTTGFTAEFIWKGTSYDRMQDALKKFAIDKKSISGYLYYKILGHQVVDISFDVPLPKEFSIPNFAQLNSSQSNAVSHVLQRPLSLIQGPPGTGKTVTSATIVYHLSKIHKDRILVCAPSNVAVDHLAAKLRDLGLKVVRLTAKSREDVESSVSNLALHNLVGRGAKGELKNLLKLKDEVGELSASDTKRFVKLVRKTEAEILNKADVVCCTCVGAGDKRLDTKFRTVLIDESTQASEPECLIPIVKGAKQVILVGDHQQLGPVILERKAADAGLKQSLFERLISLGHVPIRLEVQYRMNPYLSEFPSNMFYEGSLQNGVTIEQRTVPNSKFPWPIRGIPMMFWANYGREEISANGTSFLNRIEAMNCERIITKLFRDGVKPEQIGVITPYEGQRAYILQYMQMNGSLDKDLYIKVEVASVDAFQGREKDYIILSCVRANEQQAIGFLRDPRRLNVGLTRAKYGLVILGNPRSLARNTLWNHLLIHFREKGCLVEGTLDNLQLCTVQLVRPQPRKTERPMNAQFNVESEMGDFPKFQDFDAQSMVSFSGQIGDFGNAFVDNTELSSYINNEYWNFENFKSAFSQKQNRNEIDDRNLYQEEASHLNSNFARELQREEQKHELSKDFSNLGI

CBP-Nmd4 (S. cerevisiae) = target: T5, CBP-Nmd4 (S. cerevisiae) (UniProt Q12129); assay: pull-down
T5 sequence: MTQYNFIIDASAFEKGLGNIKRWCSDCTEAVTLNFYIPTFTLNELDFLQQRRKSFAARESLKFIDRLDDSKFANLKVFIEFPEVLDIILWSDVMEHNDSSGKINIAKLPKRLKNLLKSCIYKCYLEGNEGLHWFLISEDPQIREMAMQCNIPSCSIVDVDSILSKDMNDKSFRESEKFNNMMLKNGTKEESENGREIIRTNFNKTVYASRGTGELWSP

B1: Edc3-HA (protein, UniProt P39998 1-551)
chain: MSQFVGFGVQVELKDGKLIQGKIAKATSKGLTLNDVQFGDGGKSQAFKVRASRLKDLKVLTVASQSGKRKQQRQQQQQNDYNQNRGEHIDWQDDDVSKIKQQEDFDFQRNLGMFNKKDVFAQLKQNDDILPENRLQGHNRKQTQLQQNNYQNDELVIPDAKKDSWNKISSRNEQSTHQSQPQQDAQDDLVLEDDEHEYDVDDIDDPKYLPITQSLNITHLIHSATNSPSINDKTKGTVINDKDQVLAKLGQMIISQSRSNSTSLPAANKQTTIRSKNTKQNIPMATPVQLLEMESITSEFFSINSAGLLENFAVNASFFLKQKLGGRARLRLQNSNPEPLVVILASDSNRSGAKALALGRHLCQTGHIRVITLFTCSQNELQDSMVKKQTDIYKKCGGKIVNSVSSLESAMETLNSPVEIVIDAMQGYDCTLSDLAGTSEVIESRIKSMISWCNKQRGSTKVWSLDIPNGFDAGSGMPDIFFSDRIEATGIICSGWPLIAINNLIANLPSLEDAVLIDIGIPQGAYSQRTSLRKFQNCDLFVTDGSLLLDL
- binding (Upf1-TAP (S. cerevisiae) [1]): binds
- binding (Upf1-TAP (S. cerevisiae) [2]): binds

B2: CBP-Nmd4 (natural protein, S. cerevisiae, UniProt Q12129 1-218, looked up)
chain: MTQYNFIIDASAFEKGLGNIKRWCSDCTEAVTLNFYIPTFTLNELDFLQQRRKSFAARESLKFIDRLDDSKFANLKVFIEFPEVLDIILWSDVMEHNDSSGKINIAKLPKRLKNLLKSCIYKCYLEGNEGLHWFLISEDPQIREMAMQCNIPSCSIVDVDSILSKDMNDKSFRESEKFNNMMLKNGTKEESENGREIIRTNFNKTVYASRGTGELWSP
- binding (Upf1-TAP (S. cerevisiae) [1]): binds
- binding [3]: no binding
- binding [4]: binds
- binding [5]: binds
- binding (Upf1-TAP (S. cerevisiae) [2]): binds

B3: Ebs1-HA (protein, UniProt Q03466 1-884)
chain: MEPSNTQKEDLPTAFNGIKSQLNSILKSNQLFQDYALLNGFLAFVHSKLNAAILTSIESQCGKSFAADLDSFDQSSISSILDFSWESVHYPIFKWFQMWRNYILFEKENKKQQTKFIDFRKMNSKMLKFFKTVQNFYVNVINTVYKKYDISVLLPKRIIQDLKLSDIENTTNVGDILAVKTFNSSSPLAHLIPTLFHRCLLFLGTAYRYKTLLEEISNKYSISNFKKSLDFFRLASLVLPSAGETYSQAGAIFLQTGNLGIAVFNFVKGMMTKMPSPVSIKNFGALMVDNKSSLNRSLHTTIMNTYLQESKGPRTPAKEILEFYFLGLFGSVWSPTSWRDDTKPNQLNNGIKLRHLENALYETMSARYLNNIKTIFHNLIITIGGFHLLLKRRSDVSAKTLKDLRSNELDYLNFAFKYIAHILNDIVKESWSENPEVSEILGMVRIINCWIKANPMVLQYSQSNLEFVNALAYLINDIVKKKPSPSFSITEHIPKRTYWFEEDLMVKGLSFVNFQLSDFDDYEKILEMDHSLDRLIGNPPLCDKLSASSEMLLRLQAVVNISSQLLQNNNCGVEWSDNKSRYIFNKKIGFKETVKNSMKTSKQSNEKAKLQRKNKPSTTNGSISMADLERQMRSSSLDSFSPTMGYSGSSVPMAPDTFNVKPSGTITGNKVNVELLKIELSGQNADGAITNISPGYSNAAISSSNSTDESSFDLNNILSSMQQKHAEKSFAKSMQGVNEQIPANDVCHQAQRPMQGGLYSSQQPSSMSSLNSAYQNASMPPSASMVSYPYPFLNQQGQGVFPPYNAQNLQWQSEAYSLKSMNFANPTWLGDQYQTSAPSSAYAQAQRQMFQQPMQQDVGKYMQFPFDAQSNTDSMRGNSRNNMF
- binding (Upf1-TAP (S. cerevisiae) [1]): binds
- binding (Upf1-TAP (S. cerevisiae) [2]): binds

B4: hUpf1-HD (295-914) (domain or fragment, UniProt Q92900-2 295-914)
chain: RYEDAYQYQNIFGPLVKLEADYDKKLKESQTQDNITVRWDLGLNKKRIAYFTLPKTDSDMRLMQGDEICLRYKGDLAPLWKGIGHVIKVPDNYGDEIAIELRSSVGAPVEVTHNFQVDFVWKSTSFDRMQSALKTFAVDETSVSGYIYHKLLGHEVEDVIIKCQLPKRFTAQGLPDLNHSQVYAVKTVLQRPLSLIQGPPGTGKTVTSATIVYHLARQGNGPVLVCAPSNIAVDQLTEKIHQTGLKVVRLCAKSREAIDSPVSFLALHNQIRNMDSMPELQKLQQLKDETGELSSADEKRYRALKRTAERELLMNADVICCTCVGAGDPRLAKMQFRSILIDESTQATEPECMVPVVLGAKQLILVGDHCQLGPVVMCKKAAKAGLSQSLFERLVVLGIRPIRLQVQYRMHPALSAFPSNIFYEGSLQNGVTAADRVKKGFDFQWPQPDKPMFFYVTQGQEEIASSGTSYLNRTEAANVEKITTKLLKAGAKPDQIGIITPYEGQRSYLVQYMQFSGSLHTKLYQEVEIASVDAFQGREKDFIILSCVRANEHQGIGFLNDPRRLNVALTRARYGVIIVGNPKALSKQPLWNHLLNYYKEQKVLVEGPLNNLRESLMQFS
- binding (CBP-Nmd4 (S. cerevisiae)): no binding (tested: 2μg of each protein)
